# Literature values in patent publication US9939427B2, “Method for evaluating the scent performance of perfumes or perfume mixtures” (Symrise AG, priority 2013, dated 2018).
# Conditions: specific anosmia to the primary odorant in humans; cited from earlier work
row,Compound,Anosmia occurrence [%]
1,CC(C)CC(=O)O [Isovaleric acid],3
2,"O=C1CCCCCCCCCCCCCCO1 [Pentadecanolide, ω-cyclopentadecanolide]",12
3,"C[C@]12CCC(=O)C[C@@H]1CC[C@@H]1[C@@H]2CC[C@]2(C)C=CC[C@@H]12 [Androstenon, 5α-Androst-16-en-3-one]",47
4,"CC(C)C=O [Isobutyr aldehyde, Isobutyraldehyde]",36
